# Data: the supplement of paper PMC8728848
# The list shows a part of the results.
# B1: Spy 2007 (Streptococcus pyogenes), Q99XV3 (protein)
# chain: MKKGFFLMAMVVSLVMIAGCDKSANPKQPTQGMSVVTSFYPMYAMTKEVSGDLNDVRMIQSGAGIHSFEPSVNDVAAIYDADLFVYHSHTLEAWARDLDPNLKKSKVDVFEASKPLTLDRVKGLEDMEVTQGIDPATLYDPHTWTDPVLAGEEAVNIAKELGRLDPKHKDSYTKNAKAFKKEAEQLTEEYTQKFKKVRSKTFVTQHTAFSYLAKRFGLKQLGISGISPEQEPSPRQLKEIQDFVKEYNVKTIFAEDNVNPKIAHAIAKSTGAKVKTLSPLEAAPSGNKTYLENLRANLEVLYQQLK
# Legend:
# Assay in all cases: glycan array binding signal (z-score within array); higher = stronger binding
# Conditions in all cases: glycan notation: IUPAC condensed, linker removed
# Gal3S6S(b1-4)GlcNAc6S = target: Gal3S6S(b1-4)GlcNAc6S
# How it was run: (§1)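 The binding signal is a Z-score computed within each array and averaged over linkers. Arrays of the same protein sequence at different concentrations or buffers were also averaged together. Data originate from 3228 arrays in the Consortium for Functional Glycomics database, kept only where the protein sequence was available.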
# Gal4S(b1-4)GlcNAc = target: Gal4S(b1-4)GlcNAc
# How it was run: as §1
# Gal4S6S(b1-4)GlcNAc = target: Gal4S6S(b1-4)GlcNAc
# How it was run: as §1
# Gal6S(b1-4)Glc = target: Gal6S(b1-4)Glc
# How it was run: as §1
# Gal6S(b1-4)Glc6S = target: Gal6S(b1-4)Glc6S
# How it was run: as §1
# Gal6S(b1-4)GlcNAc = target: Gal6S(b1-4)GlcNAc
# How it was run: as §1
# Gal6S(b1-4)GlcNAc6S = target: Gal6S(b1-4)GlcNAc6S
# How it was run: as §1
# GalNAc(a1-3)Gal = target: GalNAc(a1-3)Gal
# How it was run: as §1
# GalNAc(a1-3)GalNAc = target: GalNAc(a1-3)GalNAc
# How it was run: as §1
# GalNAc(b1-3)Gal = target: GalNAc(b1-3)Gal
# How it was run: as §1
# [1] = target: GalNAc(b1-3)Gal(a1-4)Gal(b1-4)GlcNAc
# How it was run: as §1
# [2] = target: GalNAc(b1-3)Gal(a1-4)Gal(b1-4)GlcNAc(b1-3)Gal(b1-4)Glc
# How it was run: as §1
# GalNAc(b1-3)GalNAc = target: GalNAc(b1-3)GalNAc
# How it was run: as §1
# GalNAc(b1-4)GlcNAc = target: GalNAc(b1-4)GlcNAc
# How it was run: as §1
# [3] = target: GalNAc(b1-4)GlcNAc(b1-2)Man(a1-3)[GalNAc(b1-4)GlcNAc(b1-2)Man(a1-6)]Man(b1-4)GlcNAc(b1-4)GlcNAc
# How it was run: as §1
# Glc(a1-4)Glc = target: Glc(a1-4)Glc
# How it was run: as §1
# Glc(a1-6)Glc(a1-6)Glc = target: Glc(a1-6)Glc(a1-6)Glc
# How it was run: as §1
# Glc(b1-4)Glc = target: Glc(b1-4)Glc
# How it was run: as §1
# Glc(b1-6)Glc = target: Glc(b1-6)Glc
# How it was run: as §1
# GlcA(b1-3)Gal = target: GlcA(b1-3)Gal
# How it was run: as §1
# GlcA(b1-3)GlcNAc = target: GlcA(b1-3)GlcNAc
# How it was run: as §1
# GlcA(b1-6)Gal = target: GlcA(b1-6)Gal
# How it was run: as §1
# [4] = target: GlcNAc(a1-3)Gal(b1-4)GlcNAc
# How it was run: as §1
# [5] = target: GlcNAc(a1-4)Gal(b1-3)GlcNAc
# How it was run: as §1
# [6] = target: GlcNAc(a1-4)Gal(b1-4)GalNAc
# How it was run: as §1
# [7] = target: GlcNAc(a1-4)Gal(b1-4)GlcNAc
# How it was run: as §1
# [8] = target: GlcNAc(a1-4)Gal(b1-4)GlcNAc(b1-3)Gal(b1-4)Glc
# How it was run: as §1
# [9] = target: GlcNAc(a1-4)Gal(b1-4)GlcNAc(b1-3)Gal(b1-4)GlcNAc
# How it was run: as §1
# [10] = target: GlcNAc(a1-4)Gal(b1-4)GlcNAc(b1-3)Gal(b1-4)GlcNAc(b1-3)Gal(b1-4)GlcNAc
# How it was run: as §1
# [11] = target: GlcNAc(a1-4)Gal(b1-4)GlcNAc(b1-3)Gal(b1-4)[Fuc(a1-3)]GlcNAc(b1-3)Gal(b1-4)[Fuc(a1-3)]GlcNAc
# How it was run: as §1
# [12] = target: GlcNAc(a1-6)Gal(b1-4)GlcNAc
# How it was run: as §1
# [13] = target: GlcNAc(b1-2)Gal(b1-3)GalNAc
# How it was run: as §1
# [14] = target: GlcNAc(b1-2)Man(a1-3)[GlcNAc(b1-2)Man(a1-6)]Man(b1-4)GlcNAc(b1-4)GlcNAc
# How it was run: as §1
# [15] = target: GlcNAc(b1-2)Man(a1-3)[GlcNAc(b1-2)Man(a1-6)]Man(b1-4)GlcNAc(b1-4)[Fuc(a1-6)]GlcNAc
# How it was run: as §1
# GlcNAc(b1-3)Gal = target: GlcNAc(b1-3)Gal
# How it was run: as §1
# [16] = target: GlcNAc(b1-3)Gal(b1-3)GalNAc
# How it was run: as §1
# GlcNAc(b1-3)Gal(b1-4)Glc = target: GlcNAc(b1-3)Gal(b1-4)Glc
# How it was run: as §1
# [17] = target: GlcNAc(b1-3)Gal(b1-4)GlcNAc
# How it was run: as §1
# [18] = target: GlcNAc(b1-3)Gal(b1-4)GlcNAc(b1-3)Gal(b1-4)GlcNAc
# How it was run: as §1
# GlcNAc(b1-3)GalNAc = target: GlcNAc(b1-3)GalNAc
# How it was run: as §1
# GlcNAc(b1-3)Man = target: GlcNAc(b1-3)Man
# How it was run: as §1
# [19] = target: GlcNAc(b1-3)[GlcNAc(b1-4)][GlcNAc(b1-6)]GlcNAc
# How it was run: as §1
# [20] = target: GlcNAc(b1-3)[GlcNAc(b1-6)]Gal(b1-4)GlcNAc
# How it was run: as §1
# [21] = target: GlcNAc(b1-3)[GlcNAc(b1-6)]GalNAc
# How it was run: as §1
# [22] = target: GlcNAc(b1-4)Gal(b1-4)GlcNAc
# How it was run: as §1
binder,measurement,setting,value
B1,glycan array binding signal (z-score),Gal3S6S(b1-4)GlcNAc6S,3
same,glycan array binding signal (z-score),Gal4S(b1-4)GlcNAc,0.369
same,glycan array binding signal (z-score),Gal4S6S(b1-4)GlcNAc,0.697
same,glycan array binding signal (z-score),Gal6S(b1-4)Glc,0.611
same,glycan array binding signal (z-score),Gal6S(b1-4)Glc6S,2.23
same,glycan array binding signal (z-score),Gal6S(b1-4)GlcNAc,0.573
same,glycan array binding signal (z-score),Gal6S(b1-4)GlcNAc6S,5.95
same,glycan array binding signal (z-score),GalNAc(a1-3)Gal,0.585
same,glycan array binding signal (z-score),GalNAc(a1-3)GalNAc,-0.046
same,glycan array binding signal (z-score),GalNAc(b1-3)Gal,1.03
same,glycan array binding signal (z-score),[1],0.96
same,glycan array binding signal (z-score),[2],-0.522
same,glycan array binding signal (z-score),GalNAc(b1-3)GalNAc,0.965
same,glycan array binding signal (z-score),GalNAc(b1-4)GlcNAc,-0.285
same,glycan array binding signal (z-score),[3],3.5
same,glycan array binding signal (z-score),Glc(a1-4)Glc,-0.547
same,glycan array binding signal (z-score),Glc(a1-6)Glc(a1-6)Glc,-0.985
same,glycan array binding signal (z-score),Glc(b1-4)Glc,-0.481
same,glycan array binding signal (z-score),Glc(b1-6)Glc,-0.764
same,glycan array binding signal (z-score),GlcA(b1-3)Gal,-0.56
same,glycan array binding signal (z-score),GlcA(b1-3)GlcNAc,-0.632
same,glycan array binding signal (z-score),GlcA(b1-6)Gal,-0.518
same,glycan array binding signal (z-score),[4],0.137
same,glycan array binding signal (z-score),[5],0.632
same,glycan array binding signal (z-score),[6],-0.513
same,glycan array binding signal (z-score),[7],0.434
same,glycan array binding signal (z-score),[8],0.12
same,glycan array binding signal (z-score),[9],-0.702
same,glycan array binding signal (z-score),[10],1.4
same,glycan array binding signal (z-score),[11],3.22
same,glycan array binding signal (z-score),[12],0.665
same,glycan array binding signal (z-score),[13],-0.732
same,glycan array binding signal (z-score),[14],-0.372
same,glycan array binding signal (z-score),[15],0.524
same,glycan array binding signal (z-score),GlcNAc(b1-3)Gal,-1.43
same,glycan array binding signal (z-score),[16],-0.586
same,glycan array binding signal (z-score),GlcNAc(b1-3)Gal(b1-4)Glc,-0.332
same,glycan array binding signal (z-score),[17],-0.491
same,glycan array binding signal (z-score),[18],0.044
same,glycan array binding signal (z-score),GlcNAc(b1-3)GalNAc,-0.545
same,glycan array binding signal (z-score),GlcNAc(b1-3)Man,-0.723
same,glycan array binding signal (z-score),[19],-0.255
same,glycan array binding signal (z-score),[20],-0.86
same,glycan array binding signal (z-score),[21],-0.403
same,glycan array binding signal (z-score),[22],0.077

# Two entries drawn at random from those above, as already listed:
binder,measurement,setting,value
B1,glycan array binding signal (z-score),[6],-0.513
same,glycan array binding signal (z-score),Glc(b1-4)Glc,-0.481
